Test system: HEK293 GFP Parkin cells
Assay: High throughput small molecule screen for Parkin recruitment to mitochondria (high content imaging)
Assay type: cell-based
Details: 4 μM, 16 h, then CCCP 2 h, rank out of 480, low rank = activator of Parkin recruitment
Description: 10 uL of 0.1 mg/mL Poly-D-Lys solution was added to 384-well plates for 5 minutes, followed by a PBS wash. Plates were dried for at least 2 hours. 50 μL of 600 000 HEK293 GFP Parkin cell/mL of DMEM was dispensed into each well. After 24 hours incubation to allow the cells to adhere, 200 nL of small molecules (or DMSO in columns 1, 2, 23 and 24) were pinned. Following a 16-hour incubation, 200 nL of 5 mM CCCP were added to all wells except columns 1 and 2, into which 200 nL of DMSO was added. Following 2-hour incubation, cells were fixed with 4% paraformaldehyde (PFA) and stained with 50 μL of 1 μg/mL DAPI solution for 15 minutes. After the final PBS wash, plates were ready for high content microscopy.
Images were acquired on IN Cell Analyzer 6000 (GE Healthcare), equipped with sCMOS camera (2048×2048), and 20x/0.45 NA Plan Fluor objective (Nikon) in open aperture mode using 1×1 binning. Image analysis was performed using Columbus Image Analysis System (PerkinElmer). Nuclei were initially detected in DAPI channel, followed by whole cell segmentation in GFP channel. […] The percentage of cells with mitochondrial GFP-Parkin was determined per well. The molecules were then rank ordered based on z-score, which is calculated using the formula: […]

For O=C1NC(=O)c2c1c(-c1ccccc1)cc1[nH]c3ccc(O)cc3c21 [PD 407824], the “rank in the kinase inhibitor library screen (rank order by z-score)” value was 425/480.
